SMILES strings stand for the structures. Structures can show the parent of a compound that is named as a salt. The list shows a part of the results. Plates or batches differ in their baseline, so values are only roughly comparable.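 A K-12 lab model strain is cultured statically in 96-well plates; biofilm is measured as the absorbance of crystal violet stain retained in the wells. Drugs counted as candidate specific biofilm blockers if they strongly reduced staining while slowing planktonic growth by under 70%.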

The text below walks through data of the supplement of paper PMC7580552.

The test system of the assay is Escherichia coli W3110. The experiment in a line: biofilm formation (crystal violet staining) relative to untreated control; higher = more biofilm. To be noted: 10 µM; 20-24 h; 30 °C; TB.
On to `CCC(=O)OCC(=O)[C@@]1(OC(=O)CC)[C@H](C)C[C@H]2[C@H]3[C@H]([C@@H](O)C[C@@]21C)[C@@]1(C)C=CC(=O)C=C1C[C@H]3Cl` [Alclometasone dipropionate], for which the biofilm formation is 92%. The compound `N=C(N)N/N=C/c1c(Cl)cccc1Cl` [Guanabenz acetate] gave a biofilm formation of 48%.

For `OC(CCN1CCCCC1)(c1ccccc1)C1CCCCC1` (stereo unspecified) [Trihexyphenidyl-D,L Hydrochloride], the biofilm formation was 72%.

Compound `Brc1c(NC2=NCCN2)ccc2nccnc12` [Brimonidine L-Tartrate] came in with a biofilm formation of 102%. In turn, `CN(C)CCOC(=O)COc1ccc(Cl)cc1` [Meclofenoxate hydrochloride] had a biofilm formation of 66%.

With `CC(=O)Nc1ccc(O)cc1` [Acetaminophen], the biofilm formation was 81%.

In turn, `COc1ccc2[nH]c([S+]([O-])Cc3ncc(C)c(OC)c3C)nc2c1` (stereo unspecified) [Omeprazole] showed a biofilm formation of 67%. As to `Cc1cc(-n2c(=O)[nH]c(=O)n(C)c2=O)ccc1Oc1ccc(SC(F)(F)F)cc1` [Toltrazuril], the biofilm formation came out at 106%. In turn, `Cc1ccccc1N1C(=O)c2cc(S(N)(=O)=O)c(Cl)cc2NC1C` (stereo unspecified) [Metolazone] had a biofilm formation of 11%. Then `OCCOCCN1CCN(C(c2ccccc2)c2ccc(Cl)cc2)CC1` (stereo unspecified) [Hydroxyzine dihydrochloride], with 67%. The same measure for `C=CC1=C(C(=O)O)N2C(=O)[C@@H](NC(=O)/C(=N\OCC(=O)O)c3csc(N)n3)[C@H]2SC1` [Cefixime]: 1%. Turning to `C[C@]12CC[C@@H]3c4ccc(O)cc4CC[C@H]3[C@@H]1C[C@@H](O)[C@@H]2O` [Estriol], the biofilm formation stood at 79%.

As to `CN(C)CCCO[C@@H]1[C@H]2OC(C)(C)O[C@H]2O[C@@H]1[C@H](O)CO` [Amiprilose hydrochloride], the biofilm formation was found to be 62%.

On to `Cc1noc(NS(=O)(=O)c2ccc(N)cc2)c1C` [Sulfisoxazole], for which the biofilm formation was 27%. `CCc1cccc2c3c([nH]c12)C(CC)(CC(=O)O)OCC3` (stereo unspecified) [Etodolac] showed a biofilm formation of 102%. Then `CC[N+](CC)(CC)CCC(O)(c1ccccc1)C1CCCCC1` (stereo unspecified) [Tridihexethyl chloride], with 85%; and `CC(Oc1c(Cl)cccc1Cl)C1=NCCN1` (stereo unspecified) [Lofexidine], with 92%; and `CC1=C(CC(=O)O)c2cc(F)ccc2/C1=C\c1ccc([S+](C)[O-])cc1` (stereo unspecified) [Sulindac], with 91%.

Take `CO/N=C(\C(=O)N[C@@H]1C(=O)N2C(C(=O)O)=C(C[N+]3(C)CCCC3)CS[C@H]12)c1csc(N)n1` [Cefepime hydrochloride]: the biofilm formation stood at 12%. Compound `CCOC(=O)[C@H](CCc1ccccc1)N[C@@H](C)C(=O)N1CCC[C@H]1C(=O)O` [Enalapril maleate] yielded a biofilm formation of 100%. Compound `CC1CS(=O)(=O)CCN1/N=C/c1ccc([N+](=O)[O-])o1` (stereo unspecified) [Nifurtimox] yielded a biofilm formation of 71%.

Compound `CN1CC2c3ccccc3Oc3ccc(Cl)cc3C2C1` (stereo unspecified) [Asenapine maleate] displayed a biofilm formation of 72%. In turn, `c1ccc2[nH]c(-c3cscn3)nc2c1` [Tiabendazole] had a biofilm formation of 66%.

In the case of `CCCCCCCN(CC)CCCC(O)c1ccc(NS(C)(=O)=O)cc1` (stereo unspecified) [Ibutilide fumarate], the biofilm formation was determined as 49%. For the compound `COc1ccc(-c2cc(=O)c3c(O)cc(O[C@@H]4O[C@H](CO[C@@H]5O[C@@H](C)[C@H](O)[C@@H](O)[C@H]5O)[C@@H](O)[C@H](O)[C@H]4O)cc3o2)cc1O` [Diosmin], the biofilm formation stood at 79%. The same measure for `CCOC(=O)C1=C[C@]2(CC)CCCN3CCc4c(n1c1ccccc41)[C@@H]32` [Vinpocetine]: 62%; for `O=C(O)CCC(=O)Nc1ccc(S(=O)(=O)Nc2nccs2)cc1` [Succinylsulfathiazole]: 72%; for `COc1cnc(NS(=O)(=O)c2ccc(N)cc2)nc1` [Sulfameter]: 30%.

With `Cc1cccc(CN2CCN(C(c3ccccc3)c3ccc(Cl)cc3)CC2)c1` (stereo unspecified) [Meclozine dihydrochloride], the biofilm formation stood at 69%. Compound `CNCCC(Oc1ccccc1OC)c1ccccc1` (stereo unspecified) [Nisoxetine hydrochloride] registered a biofilm formation of 73%. For `CCCCC(C)(O)C/C=C/[C@H]1[C@H](O)CC(=O)[C@@H]1CCCCCCC(=O)OC` (mixture of isomers) [Misoprostol], the biofilm formation amounted to 44%. As for `COc1ccccc1O` [Guaiacol], the biofilm formation amounted to 65%. Compound `CN(C)[C@@H]1C(O)=C(C(N)=O)C(=O)[C@@]2(O)C(O)=C3C(=O)c4c(O)ccc(Cl)c4[C@@](C)(O)[C@H]3C[C@@H]12` [Chlortetracycline hydrochloride] gave a biofilm formation of 20%. The compound `CC(=O)N(CC(C)C(=O)O)c1c(I)cc(I)c(N)c1I` (stereo unspecified) [Iocetamic acid] returned a biofilm formation of 61%. For `COc1cc(C(=O)NC2CCCNC2)cc(OC)c1OC` (stereo unspecified) [Troxipide], the biofilm formation turned out to be 77%. In turn, `C[C@]12CC[C@@H]3c4ccc(O)cc4CC[C@H]3[C@@H]1CCC2=O` [Estrone] had a biofilm formation of 46%. `O=C1CCc2cc(OCCCCc3nnnn3C3CCCCC3)ccc2N1` [Cilostazol] gave a biofilm formation of 59%. In the case of `CCS(=O)(=O)CCn1c([N+](=O)[O-])cnc1C` [Tinidazole], the biofilm formation is 63%. The compound `CCCCOc1cc(C(=O)NCCN(CC)CC)c2ccccc2n1` [Dibucaine] registered a biofilm formation of 77%. In turn, `CCC1=C(C)CN(C(=O)NCCc2ccc(S(=O)(=O)NC(=O)N[C@H]3CC[C@H](C)CC3)cc2)C1=O` [Glimepiride] yielded a biofilm formation of 78%. Take `CC1(C)NC(=O)N(c2ccc([N+](=O)[O-])c(C(F)(F)F)c2)C1=O` [Nilutamide]: the biofilm formation was determined as 52%.

`CCCCC(CC)CNC(=N)NC(=N)NCCCCCCNC(=N)NC(=N)NCC(CC)CCCC` (stereo unspecified) [Alexidine dihydrochloride] yielded a biofilm formation of 9%. `COC(=O)[C@@H]1[C@H]2C[C@H]3c4[nH]c5ccccc5c4CCN3C[C@@H]2CC[C@@H]1O` [Yohimbine hydrochloride] displayed a biofilm formation of 74%.

The compound `COc1ccc2cc([C@@H](C)C(=O)O)ccc2c1` [(R) -Naproxen sodium salt] came in with a biofilm formation of 83%. `Nc1nc(=O)c2c([nH]1)NC[C@@H](CNc1ccc(C(=O)N[C@@H](CCC(=O)O)C(=O)O)cc1)N2C=O` [Folinic acid calcium salt] came in with a biofilm formation of 69%. `CCn1cc(C(=O)O)c(=O)c2cnc(N3CCCC3)nc21` [Piromidic acid]: the biofilm formation was determined as 66%. As for `O=S(=O)(O)CCS` [Mesna], the biofilm formation stood at 74%.

Regarding `CC(C)(C)NC[C@H](O)c1ccc(O)c(CO)c1` [Levalbuterol hydrochloride], the biofilm formation turned out to be 77%. Consider `CCCCNC(=O)NS(=O)(=O)c1ccc(C)cc1` [Tolbutamide], for which the biofilm formation came to 82%. The same measure for `O=C(O)c1cc(-c2ccc(F)cc2F)ccc1O` [Diflunisal]: 79%; for `CCOC(=O)OC(C)OC1=C(C(=O)Nc2ccccn2)N(C)S(=O)(=O)c2ccccc21` (stereo unspecified) [Ampiroxicam]: 58%; for `CC(=O)[C@H]1CC[C@H]2[C@@H]3C[C@H](C)C4=CC(=O)CC[C@]4(C)[C@H]3[C@@H](O)C[C@]12C` [Medrysone]: 74%. In turn, `CCN1CC(CCN2CCOCC2)C(c2ccccc2)(c2ccccc2)C1=O` (stereo unspecified) [Doxapram hydrochloride] came in with a biofilm formation of 72%. In turn, `OCc1cc(C(O)CNCCCCCCOCCCCc2ccccc2)ccc1O` (stereo unspecified) [Salmeterol] registered a biofilm formation of 49%.

The compound `O=C(O)Cc1sc(-c2ccccc2)nc1-c1ccc(Cl)cc1` [Fentiazac] came in with a biofilm formation of 95%. The compound `CC(=O)OCC(=O)[C@@]12N=C(C)O[C@@H]1C[C@H]1[C@@H]3CCC4=CC(=O)C=C[C@]4(C)[C@H]3[C@@H](O)C[C@@]12C` [Deflazacort] yielded a biofilm formation of 67%.

Compound `Cc1nc2n(c(=O)c1CCN1CCC(c3noc4cc(F)ccc34)CC1)CCCC2` [Risperidone] came in with a biofilm formation of 81%. `CNCCC(Oc1ccc(C(F)(F)F)cc1)c1ccccc1` (stereo unspecified) [Fluoxetine hydrochloride] yielded a biofilm formation of 87%. In the case of `CC(=O)Nc1ccc(CC(=O)O)cc1` [Actarit], the biofilm formation was 77%. Regarding `C[C@@H](CN1CC(=O)NC(=O)C1)N1CC(=O)NC(=O)C1` [Dexrazoxane hydrochloride], the biofilm formation amounted to 82%. Turning to `Clc1ccc(COC(Cn2ccnc2)c2ccc(Cl)cc2Cl)cc1` (stereo unspecified) [Econazole nitrate], the biofilm formation came to 46%. As for `CO/N=C1\CN(c2nc3c(cc2F)c(=O)c(C(=O)O)cn3C2CC2)CC1CN` (stereo unspecified) [Gemifloxacin mesylate], the biofilm formation was determined as 12%.

For the compound `Clc1ccccc1C(c1ccccc1)(c1ccccc1)n1ccnc1` [Clotrimazole], the biofilm formation amounted to 56%.

`C=CC[N@@+]12CC[C@@]34c5ccccc5N5/C=C6/[C@H]7C[C@H]8[C@@]9(CC[N@@+]8(CC=C)C/C7=C/CO)c7ccccc7N(/C=C(/[C@@H](C[C@@H]31)/C(=C\CO)C2)[C@H]54)[C@@H]69` [Alcuronium chloride] yielded a biofilm formation of 94%. Take `CCCC(C(=O)OCCN(CC)CC)(c1ccccc1)c1ccccc1` [Proadifen hydrochloride]: the biofilm formation turned out to be 58%.

For `O=P(O)(O)C(O)(Cc1cccnc1)P(=O)(O)O` [Risedronic acid monohydrate], the biofilm formation worked out at 58%. The same measure for `CCN(CC)C(=O)N1CCN(C)CC1` [Diethylcarbamazine citrate]: 60%; for `CCN(CCCc1ccccc1)CCCc1ccccc1` [Alverine citrate salt]: 72%. Then `Cc1c(O)cccc1C(=O)N[C@@H](CSc1ccccc1)[C@H](O)CN1C[C@H]2CCCC[C@H]2C[C@H]1C(=O)NC(C)(C)C` [Nelfinavir mesylate], with 71%; and `CCSc1ccc2c(c1)N(CCCN1CCN(C)CC1)c1ccccc1S2` [Thiethylperazine dimalate], with 60%. The same measure for `CN(C)CCC(c1ccccc1)c1ccccn1` (stereo unspecified) [Pheniramine maleate]: 85%; for `CCCCOc1ccc(CC(=O)NO)cc1` [Bufexamac]: 67%. Turning to `CC(=O)OC(C)C[N+](C)(C)C` (stereo unspecified) [Methacholine chloride], the biofilm formation was 53%. For the compound `NC[C@H]1CC[C@H](C(=O)O)CC1` [Tranexamic acid], the biofilm formation amounted to 81%.

For `C=CCc1ccccc1OCC(O)CNC(C)C` (stereo unspecified) [Alprenolol hydrochloride], the biofilm formation was found to be 71%. As for `Cc1ccc(O)c([C@H](CCN(C(C)C)C(C)C)c2ccccc2)c1` [Tolterodine tartrate], the biofilm formation amounted to 61%.
